From PMC7719784
Results are given in words; binding and its absence hold for the method and conditions named. Binding seen in cells or lysates may run through a third protein. Some results given as binding are weak or reduced against the parent protein; the word gives no strength. Sequences can lack the tags named with a protein.

Target: T1, Cdhr1a-FLAG (zebrafish) (UniProt Q6B3P0)
T1 sequence: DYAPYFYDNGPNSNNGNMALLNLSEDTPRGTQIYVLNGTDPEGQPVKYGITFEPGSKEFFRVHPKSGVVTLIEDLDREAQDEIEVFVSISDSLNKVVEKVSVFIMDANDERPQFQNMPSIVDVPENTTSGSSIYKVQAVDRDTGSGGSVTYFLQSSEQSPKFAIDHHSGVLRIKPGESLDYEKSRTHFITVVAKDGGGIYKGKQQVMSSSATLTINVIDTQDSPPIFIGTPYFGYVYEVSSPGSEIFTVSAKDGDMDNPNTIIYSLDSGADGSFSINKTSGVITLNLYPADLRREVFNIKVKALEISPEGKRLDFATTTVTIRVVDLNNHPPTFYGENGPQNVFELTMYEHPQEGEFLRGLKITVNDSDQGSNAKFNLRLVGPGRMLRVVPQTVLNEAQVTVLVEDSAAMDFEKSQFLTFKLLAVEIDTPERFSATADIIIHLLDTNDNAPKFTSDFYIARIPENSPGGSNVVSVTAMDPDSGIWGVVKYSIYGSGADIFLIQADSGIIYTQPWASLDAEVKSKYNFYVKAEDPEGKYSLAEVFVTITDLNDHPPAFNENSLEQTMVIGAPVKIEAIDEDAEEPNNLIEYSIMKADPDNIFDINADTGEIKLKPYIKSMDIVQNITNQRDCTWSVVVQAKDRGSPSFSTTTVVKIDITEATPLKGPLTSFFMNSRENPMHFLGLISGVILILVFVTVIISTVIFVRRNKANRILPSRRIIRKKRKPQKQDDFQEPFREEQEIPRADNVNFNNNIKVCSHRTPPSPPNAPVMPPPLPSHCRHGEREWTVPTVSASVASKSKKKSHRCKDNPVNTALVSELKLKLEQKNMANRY
Assay: co-IP; HEK 293 cells co-transfected with Cdhr1a-FLAG and Siah1-myc or Siah1ΔRING-myc; treated with MG132 for 6 h prior to lysis; precipitated with FLAG antibodies; blot probed for FLAG and MYC

B1: Siah1-myc (enzyme, UniProt Q7ZVG6 1-282)
chain: MSRQTATALPTGTSKCPPSQRVPTLSGTTASNSDLASLFECPVCFDYVLPPILQCQSGHLVCSNCRPKLTCCPTCRGPLGSIRNLAMEKVANSVLFPCKYASSGCEVTLPHTDKAEHEELCEFRPYSCPCPGASCKWQGSLDAVMPHLLHQHKSITTLQGEDIVFLATDINLPGAVDWVMMQSCFGFHFMLVLEKQEKYDGHQQFFAIVQLIGTRKQAENFAYRLELNGHRRRLTWEATPRSIHEGIATAIMNSDCLVFDTSIAQLFAENGNLGINVTISMC
B1 was tested, and the binding was “binds”.
